Measurements taken from the supplement of paper PMC3334620.
In all, about 33,000 sequences were measured (“E-score (-0.5 to 0.5)”: median about -0.016, highest 2% from about 0.3 on). The list shows a part of the results.

Target: T1, Yer184c (UniProt P39961)
T1 sequence: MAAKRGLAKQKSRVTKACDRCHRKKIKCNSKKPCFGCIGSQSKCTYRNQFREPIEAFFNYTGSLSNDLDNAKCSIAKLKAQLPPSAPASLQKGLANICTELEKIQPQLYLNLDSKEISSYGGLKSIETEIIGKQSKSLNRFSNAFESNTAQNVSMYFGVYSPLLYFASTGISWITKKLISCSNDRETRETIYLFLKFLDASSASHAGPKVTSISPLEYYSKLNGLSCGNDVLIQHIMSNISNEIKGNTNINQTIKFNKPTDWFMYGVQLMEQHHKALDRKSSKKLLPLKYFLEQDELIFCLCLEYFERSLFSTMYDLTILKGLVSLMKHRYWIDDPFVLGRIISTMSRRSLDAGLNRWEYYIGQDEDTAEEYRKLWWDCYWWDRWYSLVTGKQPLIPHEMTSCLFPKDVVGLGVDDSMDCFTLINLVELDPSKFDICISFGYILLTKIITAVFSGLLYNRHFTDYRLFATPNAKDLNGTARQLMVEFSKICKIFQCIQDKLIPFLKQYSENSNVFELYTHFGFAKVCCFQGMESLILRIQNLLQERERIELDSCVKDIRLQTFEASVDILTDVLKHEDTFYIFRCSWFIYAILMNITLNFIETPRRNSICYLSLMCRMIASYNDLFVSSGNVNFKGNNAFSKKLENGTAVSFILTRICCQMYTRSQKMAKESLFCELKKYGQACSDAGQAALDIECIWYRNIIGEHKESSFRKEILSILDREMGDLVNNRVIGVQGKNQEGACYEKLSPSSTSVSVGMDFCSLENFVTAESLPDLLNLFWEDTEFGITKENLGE
Experiment: PBM E-score (8-mer binding enrichment) (E-score (-0.5 to 0.5)); higher = stronger / more preferred TF binding
Settings: protein concentration: 100 nM; construct: GST-full length
Procedure: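 Universal 'all 10-mer' protein binding microarrays (Agilent AMADID 015681) probed with GST-tagged S. cerevisiae TFs (full-length or DBD) made by in vitro transcription/translation (PURExpress), about 100-200 nM. Bound TF was detected with fluorescent anti-GST. Each ungapped 8-mer (which stands for itself and its reverse complement) is scored by the PBM enrichment score (E-score), a modified Wilcoxon-Mann-Whitney statistic from -0.5 to +0.5, computed with the Universal PBM Analysis Suite. Scale: above 0.35 generally sequence-specific binding.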

Row | Sequence | PBM E-score
1 | GCATAAGA | 0.124
2 | CTCGGCTA | 0.352
3 | CTCTGGAC | -0.0855
4 | ATAGTACC | 0.0487
5 | ATTGCCAG | -0.0205
6 | AATACCAC | -0.128
7 | AATTTCGG | 0.284
8 | ACTGTCCT | 0.00102
9 | AAATTTTG | 0.115
10 | AGCACTGC | -0.231
11 | AAGTCAGC | 0.0853
12 | GCTTCTCC | -0.163
13 | CTGGTACC | -0.163
14 | TTCGCCAA | -0.104
15 | ACAGTGAC | 0.0379
16 | CATCGGCG | 0.123
17 | ATGCGGAC | 0.0835
18 | CGTCAATA | 0.0212
19 | AACTATCA | 0.173
20 | CTGCGCGC | 0.21
21 | GTATTACA | 0.0534
22 | CGGTGCCA | -0.0521

Laid out differently: entries from further up
ATTGCCAG
  PBM E-score = -0.0205
AATACCAC
  PBM E-score = -0.128
CGGTGCCA
  PBM E-score = -0.0521

Remaining list, next part:

Row | Sequence | PBM E-score
23 | AAAGGTGG | -0.129
24 | ACGGCCTA | 0.0524
25 | AGATGGCA | 0.0936
26 | ACTCAGAT | 0.0283
27 | ACGATTAA | 0.0458
28 | ACCTGAGC | -0.164
29 | TCCGCGCA | 0.171
30 | AATTACCG | 0.245
31 | AACATTCG | 0.00818
32 | GTTCAGAA | 0.102
33 | AACAAGAA | 0.257
34 | AGTGGATG | -0.0688
35 | ACAGACCC | 0.0241
36 | TACCTGAA | 0.0773
37 | AAAGCCCG | 0.0436
38 | GTTTTGTA | 0.234
39 | GACGCGAC | -0.125
40 | CTCTTGAC | -0.00283
41 | CTCCCTTC | -0.385
42 | AACGGGTC | -0.104
43 | AGCAAGAT | 0.0999
44 | AGCGGTCA | -0.0407

Row | Sequence | PBM E-score
45 | TCTATTCA | 0.0659
46 | GGCTGACA | 0.121
47 | CATTCGGC | 0.269
48 | ACGAGAGG | -0.277
49 | TACTTCTA | -0.0618
50 | AATACAGA | 0.0675
51 | CGTACATA | 0.13
52 | ACCCGACT | -0.0291
53 | GCGAATCC | 0.045
54 | AAGCCGAG | 0.286
55 | ACGAAGCG | -0.198
56 | CAGGTCCA | -0.127
57 | CTTGCGCC | -0.0711
58 | CACCACTG | -0.243
59 | CCGACTAC | 0.0891
60 | ATCGACGA | 0.0279
61 | AGCGCCCT | -0.0757
62 | AAGAGGCC | -0.172
63 | GTTCGTGA | -0.0517
64 | CAAAGTGG | -0.316
65 | AGTACGTA | 0.0723
66 | GGTAGACC | -0.136

Row | Sequence | PBM E-score
67 | GTGACCGA | 0.0994
68 | GACCGACC | 0.0582
69 | GACCGGAC | 0.245
70 | CTCTAATC | -0.0252
71 | CACGAGTC | -0.172
72 | ACCTTCGC | 0.0149
73 | CAGCGGAG | -0.0658
74 | CAACAGCA | 0.0148
75 | CAAACGAG | 0.0721
76 | AATCATAG | 0.0958
77 | ATATTGAA | 0.181
78 | CTAGTGAA | 0.026
79 | ATGTCTTC | -0.108
80 | CCAGGGAC | -0.317
81 | ACCCAAAC | 0.17
82 | ATCCCCAC | -0.218
83 | ATTCTTTG | 0.0711
84 | ATTAAGGA | 0.0561
85 | GCCATTCA | 0.0596
86 | AGCTGCGA | -0.107

Look-ups from the list.
PBM E-score with AGCTGCGA reads -0.107
PBM E-score with CTAGTGAA reads 0.026
